## Primary screen of a compound library

By UniProt entry, the sequences of proteins in these tests, tags left out. Residues count along the entry.
UniProt Q8IDJ8, 1-583: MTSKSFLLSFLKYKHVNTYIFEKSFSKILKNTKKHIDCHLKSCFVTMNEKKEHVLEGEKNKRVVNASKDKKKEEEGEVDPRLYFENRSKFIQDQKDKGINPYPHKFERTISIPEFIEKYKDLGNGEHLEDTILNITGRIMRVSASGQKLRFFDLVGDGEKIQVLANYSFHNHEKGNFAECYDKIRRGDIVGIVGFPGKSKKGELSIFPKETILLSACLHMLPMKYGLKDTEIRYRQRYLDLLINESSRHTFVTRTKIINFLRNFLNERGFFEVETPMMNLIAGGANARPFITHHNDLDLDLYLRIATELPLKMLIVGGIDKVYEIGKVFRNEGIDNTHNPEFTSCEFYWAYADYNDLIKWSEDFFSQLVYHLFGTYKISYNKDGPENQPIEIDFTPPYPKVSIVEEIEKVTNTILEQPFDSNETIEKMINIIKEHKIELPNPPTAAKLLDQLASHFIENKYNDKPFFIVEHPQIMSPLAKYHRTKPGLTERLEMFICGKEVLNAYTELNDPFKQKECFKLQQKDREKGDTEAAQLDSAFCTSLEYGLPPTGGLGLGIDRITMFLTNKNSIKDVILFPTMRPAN
UniProt P9WNZ1, whole entry: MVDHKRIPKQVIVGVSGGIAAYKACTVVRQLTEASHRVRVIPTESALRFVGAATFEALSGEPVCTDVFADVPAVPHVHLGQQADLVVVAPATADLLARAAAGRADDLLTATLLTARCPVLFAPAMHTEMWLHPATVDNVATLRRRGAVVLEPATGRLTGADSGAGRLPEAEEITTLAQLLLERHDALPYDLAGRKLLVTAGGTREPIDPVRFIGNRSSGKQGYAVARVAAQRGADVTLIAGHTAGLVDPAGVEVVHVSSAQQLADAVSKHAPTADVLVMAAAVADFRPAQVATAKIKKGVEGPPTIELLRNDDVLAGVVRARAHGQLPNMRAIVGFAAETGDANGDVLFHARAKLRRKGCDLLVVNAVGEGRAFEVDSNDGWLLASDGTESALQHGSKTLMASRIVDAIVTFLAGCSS

Source: ChEMBL document CHEMBL3988442, “University of Dundee, Small-Polar-MMV Screening Library” (2021).

Results are given as percent effect.
The record does not define 0% and 100%; most values in the screen are far below 50% and negative numbers occur (in some assays of this library far below -100).
The compounds are a random part of those screened.
Two or more numbers in one place are separate tests of the same structure; such repeats can differ widely.
A dash means the value is not listed here; it may have been measured.

PfKRS1: 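Enzyme assay of the cytosolic lysyl-tRNA synthetase in 384-well plates, read by luminescence. Target: Lysine-tRNA ligase, Plasmodium falciparum 3D7 (UniProt Q8IDJ8). Compounds at 30 µM. Higher reads as stronger inhibition, judged from the few compounds that gave an IC50. About 69,000 compounds were tested under these conditions; 0.071% (about 49) showed 50% or more at least once.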
Toxoplasma: 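Assay of Toxoplasma gondii numbers, read through their beta-galactosidase reporter with a colour substrate. Compounds at 10 µM. Higher reads as fewer parasites (inferred from which compounds were picked for retests). Size under these conditions: about 67,000 compounds, about 260 of them at 50% or above in at least one test.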
CoaBC: 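Coenzyme A biosynthesis protein CoaBC, Mycobacterium tuberculosis (UniProt P9WNZ1). Enzyme assay of CoaBC with a phosphate dye (Biomol Green) read at 650 nm. Compounds at 30 µM. Higher reads as stronger inhibition, judged from the few compounds that gave an IC50. Most strong results did not repeat in a second test. Size under these conditions: about 67,000 compounds, about 40 of them at 50% or above in at least one test.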

structure | PfKRS1 | Toxoplasma | CoaBC
Cc1nc2cc(O)nn2c(C)c1CCC(=O)N(C)Cc1cscn1 | 8.578 | -2.966 | 10.12
O=C(O)C(F)(F)F.[H][C@@]12CN(C(=O)c3ccco3)C[C@]1([H])C(=O)N(Cc1csc(C)n1)C2 | - | -6.972 | -
COc1ccccc1OCCNC1CCCN(Cc2noc(C)n2)C1 (stereo not drawn) | -1.079 | -8.898 | 1.312
CSCC(CCO)Nc1nc(C(F)F)nc2ccccc12 (stereo not drawn) | 3.489 | 19.88 | -14.58
Cc1ccc(Cl)c(C)c1NC(=O)N1CCCN(Cc2ccccn2)CC1 | 3.016 | 15.61 | 3.396
O=C1CC(c2ccncc2)C2(CCN(Cc3ccc(F)cc3)CC2)N1 (stereo not drawn) | -0.3848 | - | 2.941
COC[C@H]1CCC[C@]12CN(C(=O)NCc1ccccc1)CCO2 | 8.548 | 7.173 | -2.557
c1ccc(C[C@H]2CN(Cc3nccs3)CC[C@H]2OCC2CC2)cc1 | 2.562 | 0.2773 | -3.109
CCc1ccc(CNC(=O)CCNS(=O)(=O)c2cn(C)c(C)n2)s1 | 8.338 | -33.96 | 4.126
Cc1occc1-c1nc(-c2cccc(CN3CCOCC3)c2)no1 | 0.01088 | 55.09 | 10.02
O=C(CCc1ccccn1)NCC(O)c1ccc(Cl)cc1Cl (stereo not drawn) | -1.729 | -10.66 | 1.966
CN(C)[C@@H]1CCN(c2ncc(F)cn2)[C@H]1Cc1cccnc1 | 5.779 | - | -8.71
Cc1nc(CN2CCN(CCCc3ccccc3)CC2)no1 | 4.188 | 8.115 | -4.303
O=C(CCn1cnc2cc(F)c(F)cc21)N1CCN2CCCCC2C1 (stereo not drawn) | 2.155 | 6.09 | 1.272
c1cnnc(N2CCCC2CNCc2nc3ccccc3o2)c1 (stereo not drawn) | 4.836 | -32.35 | -4.516
O=C(c1cnco1)N1C[C@@H]2CC[C@H](Oc3cccc(F)c3)[C@@H]2C1 | 1.056 | - | -4.722
CCC(O)CNc1nccc(-c2ccc(C)nc2C)n1 (stereo not drawn) | 13.72 | 18.51 | 12.68
O=C(Cc1ccc(F)cc1)N1CCN(CC(O)C2CC2)CC1 (stereo not drawn) | 6.387 | - | -21.54
O=C(N1CCOCC1)N1CCCC1c1nc(-c2ccccn2)no1 (stereo not drawn) | 2.703 | -2.92 | 9.761
CCOC(=O)[C@H]1[C@@H](O)C(=O)N(C)C12CCN(C(=O)OCC)CC2 | 1.665 | 1.141 | -0.8589
[H][C@@]12CCN(S(=O)(=O)c3cccs3)[C@]1([H])CCC(=O)N2CCOC | - | 19.94 | -
c1ccc(CN2C[C@@H]3OCCN(c4ncccn4)[C@@H]3C2)nc1 | 6.709 | - | 4.404
Cc1nc[nH]c1CN(Cc1ccccc1F)C1CC(C)(C)NC(C)(C)C1 | 0.1281 | - | 0.2392
CC(C)N1CCn2c(COCC3CCOCC3)cnc2C1C (stereo not drawn) | 0.9022 | - | -0.4167
CN1CCC(Cc2cccc(-c3cc(F)ccc3C(=O)O)n2)CC1 | 2.745 | -33.35 | 1.937
COCCN1CCN(C(C)C(=O)Nc2ccnn2C(C)C)CC1 (stereo not drawn) | 2.469 | -3.453 | 5.176
Cn1cc(C(=O)N2CCN(c3ccccc3)CC2)ccc1=O | 3.291 | -11.09 | 3.099
CCOc1ccc(CNC(=O)c2cnc(OC)nc2)cc1 | 4.351 | -1.942 | 1.38
Cc1noc(C)c1C(C)NC(=O)N1CCC(NC(=O)c2ccsc2)CC1 (stereo not drawn) | -2.06 | 1.693 | 9.25
CN(C)C(=O)COC[C@H]1CC[C@@H]2[C@@H](CCN2Cc2ccccn2)O1 | 4.781 | - | 5.176
CCOc1cc2c(cc1CCC(=O)O)CCC2 | 3.659 | 0.1494 | -0.3764
COc1ccc(-n2cccn2)c(CN2CCC3(CCCNC3)C2)c1 (stereo not drawn) | 6.528 | 10.59 | -1.378
I.c1cc2c(cc1C1(CNC3=NCCN3)CCCC1)OCCO2 | - | -6.617 | -
Cc1ccc(CN(CCCn2ccnc2)Cc2cc(F)ccc2F)s1 | -0.1306 | - | 7.543
Cc1c[nH]cc1C(=O)N1CCN(Cc2nc(C(C)C)no2)CC1 | 5.481 | 4.847 | 4.047
Cc1cccnc1NC(=O)N(CCO)Cc1ccsc1 | 2.017 | -21.21 | 7.224
Cc1ccc(-n2c(COCC(=O)O)nc3c(C)cccc32)nc1 | 4.143 | 12.69 | 5.782
CN(C)CCN1C(=O)CO[C@@H]2CN(c3ncc(F)cn3)C[C@H]21 | 1.648 | - | -
CN1C(=O)c2ccc(NC(=O)CSc3ccc4c(c3)CCC4)cc2C1=O | 9.269 | 1.233 | -0.7937
CCC(=O)NCCc1cc2nc(-c3ccncc3)ccn2n1 | 1.069 | -20.28 | 7.732 & 41.65
O=C(c1cncc(F)c1)N1CCC(c2ncc[nH]2)CC1 | 2.282 | -24.55 | 1.235
c1c[nH]c2nc(C3CCCNC3)nc-2c1 (stereo not drawn) | 3.151 | -1.791 | 2.105
Cc1nc(C)c(C(=O)N2Cc3cc(F)ccc3CC2C)o1 (stereo not drawn) | 0.2733 | 3.724 | -0.2198
CN(C)CC1COCCN1C(=O)C1(c2cccs2)CCCC1 (stereo not drawn) | -0.7733 | - | -0.6274
CC1(C)CN=C(N2CCN(CCCN3CCOCC3)CC2)S1 | 7.11 | 10.66 | 5.785
O=C(N1CCCCC1)N1CCCC(c2ncncc2-c2ccncc2)C1 (stereo not drawn) | 0.7834 | -30.75 | 0.6196
CCn1cncc1CN(Cc1ccc(OC)cc1OC)CC1CCCO1.O=C(O)CC(O)(CC(=O)O)C(=O)O (stereo not drawn) | - | -20.07 | -
CC(C)Nc1nc2c(c(NC3CC3)n1)CN(C(=O)c1ccnnc1)CC2 | -7.094 | 0.9043 | -
Cc1ccc(-c2nc3c([nH]2)CCNC3C(=O)O)c2cccnc12 (stereo not drawn) | 6.874 | 5.792 | 3.342
Cc1nc(-c2cc(C(=O)N3CCN(C)CC3)c3ccccn23)cn1C | 2.594 | -1.315 | -1.434
CC(C)Cc1cc(C(=O)N2CCC[C@H]2C(=O)N2CCOCC2)on1 | 6.499 | -3.168 | 2.314